# Values from PubChem BioAssay AID1259405 (NCATS, 2018)
# Screen: 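Mouse-designed siRNAs used to find CHO productivity engineering targets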 (primary screen)
# Cell system: Chinese hamster CHO-K1 ovary cells with stable secreted eGFP expression
# Knock-down reagent: single siRNA against mouse genes, 0.8 pmol siRNA per well (2 µl of 400 nM stock)
# Time to read-out: 3 days
# Read-out: 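Per-well intracellular GFP measured by laser scanning cytometry, plus viability from ATP luminescence, each relative to plate median of non-targeting control wells, in %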
# Direction: GFP, % of control: higher = more GFP per well, higher productivity; viability (ATP), % of control: higher = more viable cells (more ATP)
# Rule for the call: 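a knock-down is called active if GFP reaches 120% or more of non-targeting control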
# Here is an unselected part of about 50,000 reagents. In the full data, about 4,000 (8%) are marked active. 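Mouse siRNA library applied to hamster cells; one well for each siRNA.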 Unmarked entries are inactive. The numbers tell different reagents against one gene apart.
"GFP, % of control","viability (ATP), % of control",target gene,reagent
177 (active),114,Nipal3,1
71.2,99.1,Nipal3,2
98.5,127,Nipal3,3
104,129,Scyl1,1
112,73.4,Scyl1,2
71.5,92.4,Adcy3,1
66.9,95,Adcy3,2
77,83.6,Adcy3,3
61.4,65.8,Or2l13,1
60.9,90.8,Or2l13,2
39.2,21.1,Or2l13,3
34.4,45.4,Slc9b1,1
63.9,85.9,Slc9b1,2
98.8,119,Slc9b1,3
68,66.8,Sh3yl1,1
54.4,63.6,Sh3yl1,2
75.2,62.2,Sh3yl1,3
53.6,34.4,Pcnt,1
59.5,63.1,Pcnt,2
127 (active),113,Pcnt,3
76,81.7,Tm7sf2,1
58.4,62.4,Tm7sf2,2
69.2,85,Tm7sf2,3
69,69.9,Tmem161b,1
53.6,41.3,Tmem161b,2
84.2,89,Tmem161b,3
97.4,83,Ttll13,1
107,77.8,Ttll13,2
35.4,59.1,Ttll13,3
82.6,61.2,Ptp4a1,1
78.5,66.8,Ptp4a1,2
97.4,69.3,Ptp4a1,3
81.1,71.3,Or52a5,1
66,27.1,Or52a5,2
59.4,134,Or52a5,3
